## Library screen at single concentrations

Protein sequences, listed by entry. Tags and fused reporters are not part of them.
UniProt P9WPC5, whole entry: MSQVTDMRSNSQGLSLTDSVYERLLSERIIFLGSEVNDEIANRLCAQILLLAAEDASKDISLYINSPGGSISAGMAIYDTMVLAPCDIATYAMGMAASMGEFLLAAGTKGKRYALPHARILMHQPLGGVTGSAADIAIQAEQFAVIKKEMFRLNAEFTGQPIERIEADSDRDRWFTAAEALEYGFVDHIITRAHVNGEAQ
UniProt P9WPC3, whole entry partner: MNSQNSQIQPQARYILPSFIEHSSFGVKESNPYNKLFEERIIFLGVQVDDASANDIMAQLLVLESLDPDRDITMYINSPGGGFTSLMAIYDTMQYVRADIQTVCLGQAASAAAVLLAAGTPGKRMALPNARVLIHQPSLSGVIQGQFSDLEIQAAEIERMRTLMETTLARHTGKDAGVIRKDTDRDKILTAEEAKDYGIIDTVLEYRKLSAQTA
UniProt P9WFT3, whole entry: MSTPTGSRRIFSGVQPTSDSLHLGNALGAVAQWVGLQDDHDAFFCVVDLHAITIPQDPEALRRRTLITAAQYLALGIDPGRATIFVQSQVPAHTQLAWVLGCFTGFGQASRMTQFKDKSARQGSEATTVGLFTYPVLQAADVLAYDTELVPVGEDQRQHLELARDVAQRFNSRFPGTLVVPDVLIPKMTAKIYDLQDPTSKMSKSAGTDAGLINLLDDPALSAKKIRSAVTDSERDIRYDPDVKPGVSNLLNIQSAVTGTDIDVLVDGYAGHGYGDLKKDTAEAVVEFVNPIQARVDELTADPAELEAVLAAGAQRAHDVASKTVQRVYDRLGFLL

A: 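ClpP1P2, Mycobacterium tuberculosis (UniProt P9WPC5 and UniProt P9WPC3). Protease assay of ClpP1P2, read by the AMC dye that it sets free. Tested at 50 µM. Higher reads as stronger inhibition, judged from the few compounds that gave an IC50. Most other retested compounds had strongly negative values. Size under these conditions: about 69,000 compounds, about 10 of them at 50% or above in at least one test.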
B: 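Enzyme assay of tryptophanyl-tRNA synthetase; the read-out is not stated. Target: Tryptophan-tRNA ligase, Mycobacterium tuberculosis (UniProt P9WFT3). Compounds at 10 µM. Higher most likely means stronger inhibition; the record gives no direction and few retests gave an IC50. About 65,000 compounds were tested under these conditions; 0.098% (about 64) showed 50% or more at least once.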

Results are given as percent effect. The record does not define 0% and 100%; most values in the screen are far below 50% and negative numbers occur (in some assays of this library far below -100). The compounds are a random part of those screened. A dash means the value is not listed here; it may have been measured.

| # | compound | A | B |
|---|---|---|---|
| 1 | `O=C1CNc2ncnc(Nc3cnn(Cc4ccccc4F)c3)c2N1` | 9.461 | -1.359 |
| 2 | `Cc1cccc(CN2C(=O)C[C@H]3[C@@H]2CCN3Cc2ccccn2)n1` | 19.09 | 0.07633 |
| 3 | `N#Cc1csc(CNCCOc2ccccc2)c1` | 2.428 | -0.361 |
| 4 | `CCOC[C@]12COC[C@H]1CN(Cc1ccc(F)c(F)c1)C2` | -14.29 | - |
| 5 | `O=C(CCCOCc1ccccc1)N1CCCC(c2ncc[nH]2)C1` (stereo not drawn) | 7.857 | 6.39 |
| 6 | `CCCNC(=O)c1cc(Br)cc(S(=O)(=O)N2CCOCC2)c1F` | 2.32 | -4.231 |
| 7 | `O=C1CC2(CCCC2)CC(=O)N1Cc1nc2ncccn2n1` | -12.82 | 0.4188 |
| 8 | `CCCn1nc2c(cc1=O)CN(Cc1nc(-c3ccoc3)no1)CC2` | 4.549 | 1.451 |
| 9 | `Cn1ccnc1CN1CCN(CC(O)c2cccc(F)c2)CC1` (stereo not drawn) | 6.546 | 0.7037 |
| 10 | `CN(Cc1cccc2ncccc12)C(=O)CCn1ccc(=O)[nH]c1=O` | -8.264 | -0.6424 |
| 11 | `CCc1nccn1C1CCCN(C(=O)c2cnn3ccc(C)nc23)C1` (stereo not drawn) | 11.4 | 0.07825 |
| 12 | `CC(=O)N(Cc1noc(C)n1)C1CCN(Cc2ccncc2Cl)C1` (stereo not drawn) | 15.87 | -0.8772 |
| 13 | `CS(=O)(=O)NCCC(=O)NC1CCc2nccn2C1` (stereo not drawn) | 1.257 | -4.44 |
| 14 | `CCNc1cc2c(nn1)CCN(C(=O)c1c(C)noc1C)C2` | -27.88 | -2.274 |
| 15 | `Cc1ncc(C(=O)NCCNc2ncccn2)s1` | 5.802 | -4.405 |
| 16 | `Cc1ccc(CNC(=O)CN2C=Nc3ccccc3S2(=O)=O)s1` | 7.278 | 2.437 |
| 17 | `CC(C)CN1CCC(NCCNc2cccnc2)CC1` | -13.31 | -1.485 |
| 18 | `Cc1nc(N2CCOCC2)nc2c1CCN(C(=O)C1CCCCC1)CC2` | -2.124 | 2.49 |
| 19 | `COC[C@@]12CC[C@@H](N3CCOCC3)C[C@H]1CCN(c1ncccc1C)C2` | -6.225 | 2.916 |
| 20 | `CCN(CC)S(=O)(=O)N1CCCN(CC2CCCO2)CC1` (stereo not drawn) | -9.225 | 2.783 |
| 21 | `NC(=O)CN1CC2(CCC1=O)CCN(Cc1ccc(Cl)c(F)c1)CC2` | 1.834 | -2.344 |
| 22 | `O=C1CC(N(C(=O)c2ccc3[nH]c4c(c3c2)CCCC4)C2CC2)C(=O)N1` (stereo not drawn) | 12.56 | 4.013 |
| 23 | `CC(Cn1ccnc1)NC(=O)NCc1ccccn1` (stereo not drawn) | -13.79 | -0.728 |
| 24 | `Cc1nc(CN(C)C2CCN(CCc3cnn(C)c3)C2)no1` (stereo not drawn) | -33.7 | -0.298 |
| 25 | `CC(NC(=O)NCCCO)c1ccc2c(c1)OCCO2` (stereo not drawn) | 11.77 | -0.6803 |
| 26 | `Cc1ccc2oc(=O)n(CCC(=O)N3CCN(C)C(=O)C3)c2c1` | -11.63 | -1.41 |
| 27 | `CNc1nc(CNC(=O)Nc2cccc(Cl)c2Cl)cs1` | -25.09 | -4.708 |
| 28 | `Cc1cccc(C(C(=O)NCCCc2ccncc2)N(C)C)c1` (stereo not drawn) | -4.182 | 0 |
| 29 | `CCOc1ccccc1CC(=O)N1C[C@H](C2CC2)[C@@H](N)C1` | -5.196 | 0.4405 |
| 30 | `O=C(CN1CCC(c2ccnn2CCO)CC1)NCc1ccco1` | -3.756 | 14.1 |
| 31 | `COc1cc(CNCc2c(C(C)C)nn(C)c2N(C)C)ccn1` | 21.16 | 0.6289 |
| 32 | `O=C(c1c[nH]c(=O)c(Cl)c1)N1CCc2ccccc2C1` | 1.718 | 3.576 |
| 33 | `Cc1n[nH]c(=O)c(C(=O)N2CCN(CCc3cccs3)CC2)c1C` | -36.84 | -5.08 |
| 34 | `COc1nc2c(cc1C(=O)N1C[C@H](N)C[C@H]1C(=O)NC(C)C)CCC2` | -1.692 | -2.654 |
| 35 | `CC(C)N1CCCC(CNC(=O)CN(C)S(=O)(=O)c2ccccc2)C1` (stereo not drawn) | 7.604 | 3.783 |
| 36 | `CCN(CC)C(CNCc1ccc(OC)c(F)c1)c1ccco1` (stereo not drawn) | 13.06 | 11.57 |
| 37 | `Cc1cc(CCCC(=O)NC2CCN(C)C2=O)c(C)s1` (stereo not drawn) | 3.124 | 1.312 |
| 38 | `c1csc(CN2CCO[C@@H]3CN(C4CCOCC4)C[C@@H]3C2)c1` | -12.22 | -1.647 |
| 39 | `O=C(c1cc[nH]n1)N1CCc2onc(COc3cccnc3)c2C1` | 3.866 | 0.3127 |
| 40 | `O=C(CSc1nnc(N2CCOCC2)s1)NCc1cccs1` | 15.77 | 0.08157 |
| 41 | `CC(C)C(NC(=O)c1ccccc1)C(=O)N1CCC2(CC1)OCCO2` (stereo not drawn) | 5.047 | -0.7333 |
| 42 | `Cc1nccn1-c1cccc(C2CCCN2)n1` (stereo not drawn) | -80.41 | -7.381 |
| 43 | `Cc1cc(C2CCCN2C(=O)NCc2cccnc2N(C)C)on1` (stereo not drawn) | -13.51 | 3.194 |
| 44 | `CN(C)S(=O)(=O)N1CC[C@]2(O)CCN(c3cc(C#N)ccn3)C[C@@H]2C1` | -64.56 | -3.701 |
| 45 | `CN1C(=O)CC(c2ccccc2)C12CCN(c1ncccn1)CC2` (stereo not drawn) | 11.93 | 5.642 |
| 46 | `CCOC(=O)C1CCN(C(=O)c2cc(Br)ccc2-n2cnnn2)CC1` | -4.528 | 3.099 |
| 47 | `CCn1nc(C)c(NC(=O)CCn2ncc3cc(C)ccc32)c1C` | -6.026 | -2.591 |
| 48 | `CCS(=O)(=O)N1CCc2c(cnc(-c3cccnc3)c2C(=O)O)C1` | 10.63 | 4.185 |
| 49 | `Cc1ccc2c(c1)c(CNC(=O)C1CCN(C(C)C)CC1)nn2C` | 2.27 | -2.09 |
| 50 | `COCc1cc(CNc2cnn(CC(F)F)c2)ccc1OC` | 4.721 | - |
| 51 | `CCn1cc(S(=O)(=O)N2CCC(C)CC2)c(C)n1` | -19.21 | -0.1273 |
| 52 | `Clc1ccc(Cc2nc(CNCCn3cccn3)cs2)cc1` | -15.75 | 4.583 |
| 53 | `Cn1cc(N2CCC(NC(=O)c3c(F)cccc3F)C2=O)cn1` (stereo not drawn) | -12.9 | -1.174 |
| 54 | `CC(C)c1ncc(CN2CCCC(CO)C2)cn1` (stereo not drawn) | -9.862 | 1.087 |
| 55 | `CCn1cc(NC(=O)NCCN2CCCCCC2=O)cn1` | 12.03 | 2.721 |
| 56 | `Cc1ncsc1C(=O)NCCNC(=O)OC(C)(C)C` | 3.964 | 0.9855 |
| 57 | `O=S(=O)(NC1=NCN(CCc2ccccc2)CN1)c1ccc(F)cc1` | -8.113 | -1.611 |
| 58 | `Cc1nnsc1CN1CC[C@@](O)(C2CCC2)[C@H](C)C1` | -9.795 | -2.22 |
| 59 | `c1ccc(OC[C@]23COC[C@H]2CN(C2CCOCC2)C3)nc1` | -19.15 | -8.067 |
| 60 | `CC(C)(C)Nc1nc(-c2cccnc2)c(-c2ccnc(NCCO)n2)s1` | 7.195 | - |
| 61 | `CC1(C)OCC2(CO1)CN(S(=O)(=O)c1ccc(Cl)s1)C2` | 0.3006 | 0.228 |
| 62 | `Cc1csc(N2CCCN(C3Cc4ccccc4C3)CC2)n1` | 2.612 | 9.984 |
| 63 | `O=C(NCC1CC1)[C@@H]1CC[C@@H]2[C@@H](CCN2CCOCc2ccccc2)O1` | -1.073 | -6.132 |
| 64 | `CNS(=O)(=O)c1ccc(CNC(=O)Nc2ccccn2)s1` | -3.625 | -0.8567 |
| 65 | `CN1C(=O)CC2(CCN(Cc3cnn(C)c3)CC2)c2ccccc21` | -0.3094 | -2.044 |
| 66 | `CN(C)C(=O)c1nn(C)c2c1CN(Cc1cccs1)C2` | -18.01 | 5.255 |
| 67 | `O=C(c1cccnc1)N1CCC2(CC1)CCN(c1ccsc1)C2=O` | -12.17 | 4.3 |
| 68 | `CCc1cc(N2CCNCC2)n2nc(C)c(C)c2n1` | -2.093 | -5.178 |
| 69 | `Cc1nc(CN2CCC3(CC2)NC(=O)CC3c2cccnc2)cs1` (stereo not drawn) | -16.11 | -1.493 |
| 70 | `c1ccc(CN2CCn3c(Cn4cncn4)cnc3C2)nc1` | -4.837 | -3.127 |
| 71 | `CN1CCCC1CNC(=O)CCCOc1ccc(Br)cc1` (stereo not drawn) | 1.835 | -5.21 |
| 72 | `O=S(=O)(NCc1ccccc1)Nc1ccc(-n2cncn2)cc1` | 4.68 | 4.348 |
| 73 | `CC(C)c1ccc(CS(=O)(=O)CC(=O)NCc2ccccc2F)cc1` | -8.361 | 2.709 |
| 74 | `CNC(=O)c1ccc(-c2ccccc2)n1C` | -2.111 | -8.354 |
| 75 | `Cc1cccnc1NC(=O)NCc1cccnc1OC(C)C` | 1.806 | -8.69 |
| 76 | `O=C(Cc1ccccc1)N1CCC2(CC(=O)N(c3cccc(F)c3)C2)C1` (stereo not drawn) | -2.981 | 2.682 |
| 77 | `COCC(=O)Nc1cnc(N2CCCC2)nc1` | -27.57 | -0.8675 |
| 78 | `C[S+]([O-])CCNCc1ccc(OCc2cscn2)cc1` (stereo not drawn) | 8.139 | -5.636 |
| 79 | `Cc1c(C(=O)O)cnn1-c1ccc(-c2nc(C(C)C)no2)cn1` | 9.118 | -1.694 |
| 80 | `Cn1cc(CN2C[C@H]3CN(c4cncnc4)C(=O)[C@H]3C2)cn1` | 0.7769 | 0.7229 |
| 81 | `Cc1ccc([C@]2(O)CC[C@H]3CN(Cc4cccc(F)c4F)C[C@H]32)nc1` | 9.877 | - |
| 82 | `CCCS(=O)(=O)N1Cc2nccn2CC(Cn2cncn2)C1` (stereo not drawn) | -5.029 | - |
| 83 | `CN(C)C(=O)N1CCN(C(=O)c2ccccc2)CC2(CNC(=O)C2)C1` (stereo not drawn) | 2.688 | -7.214 |
| 84 | `O=C(CN1CCN(CCO)CC1)NC(C1CC1)C1CC1` | -8.509 | -2.3 |

Some entries from above, unchanged:

{"compound": "CCn1cc(S(=O)(=O)N2CCC(C)CC2)c(C)n1", "A": -19.21, "B": -0.1273}
{"compound": "COCc1cc(CNc2cnn(CC(F)F)c2)ccc1OC", "A": 4.721}
{"compound": "CC(C)c1ccc(CS(=O)(=O)CC(=O)NCc2ccccc2F)cc1", "A": -8.361, "B": 2.709}
{"compound": "COc1nc2c(cc1C(=O)N1C[C@H](N)C[C@H]1C(=O)NC(C)C)CCC2", "A": -1.692, "B": -2.654}
{"compound": "C[S+]([O-])CCNCc1ccc(OCc2cscn2)cc1", "stereo": "stereo not drawn", "A": 8.139, "B": -5.636}
{"compound": "O=C(c1cc[nH]n1)N1CCc2onc(COc3cccnc3)c2C1", "A": 3.866, "B": 0.3127}
{"compound": "CCOC[C@]12COC[C@H]1CN(Cc1ccc(F)c(F)c1)C2", "A": -14.29}
{"compound": "O=C(CSc1nnc(N2CCOCC2)s1)NCc1cccs1", "A": 15.77, "B": 0.08157}

Data taken from ChEMBL document CHEMBL3988442, “University of Dundee, Small-Polar-MMV Screening Library” (2021).